Laboratory results taken from patent publication US20100150924A1 (published 2010).
Results are given in words; binding and its absence hold for the method and conditions named. Some results given as binding are weak or reduced against the parent protein; the word gives no strength. Tags and fused reporters may be left off the sequences shown.

Experiments:
[1] = biological target: T1, endogenous rat Necl1 (on cultured DRG neurons; also in rat brain membranes) (rat) (UniProt Q1WIM3); assay: Fc-fusion binding to DRG neurons after Necl1 siRNA
T1 sequence (looked up): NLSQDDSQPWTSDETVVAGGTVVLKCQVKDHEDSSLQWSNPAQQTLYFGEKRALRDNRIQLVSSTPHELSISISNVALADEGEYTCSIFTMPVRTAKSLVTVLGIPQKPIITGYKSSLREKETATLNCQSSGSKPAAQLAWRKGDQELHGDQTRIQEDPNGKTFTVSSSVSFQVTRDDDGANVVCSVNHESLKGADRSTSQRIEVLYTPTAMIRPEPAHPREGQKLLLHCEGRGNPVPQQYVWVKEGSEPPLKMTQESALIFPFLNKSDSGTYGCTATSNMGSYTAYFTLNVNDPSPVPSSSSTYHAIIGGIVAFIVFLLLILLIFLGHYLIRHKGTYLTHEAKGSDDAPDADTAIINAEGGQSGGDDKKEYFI

[2] = biological target: T1, endogenous rat Necl1 (on cultured DRG neurons; also in rat brain membranes) (rat); assay: clustering of bound Fc-fusion on cells, then immunostaining
[3] = biological target: T1, endogenous rat Necl1 (on cultured DRG neurons; also in rat brain membranes) (rat); assay: co-clustering on DRG neurons after aggregation of the Fc-fusion
[4] = biological target: T1, endogenous rat Necl1 (on cultured DRG neurons; also in rat brain membranes) (rat); assay: Fc-fusion binding to DRG neurons after Necl1 siRNA or control siRNA

binding [1]: binds
binding [2]: binds
binding [3]: binds
binding [4]: binds
B1: Necl4-Fc (extracellular domain of Necl4 fused to the constant region of human IgG1) (Fc fusion)
chain: QEVQTENVTVAEGGVAEITCRLHQYDGSIVVIQNPARQTLFFNGTRALKDERFQLEEFSPRRVRIRLSDARLEDEGGYFCQLYTEDTHHQIATLTVLVAPENPVVEVREQAVEGGEVELSCLVPRSRPAAVLRWYRDRKELKGVSSGQENGKVWSVASTVRFRVDRKDDGGIVICEAQNQALPSGHSKQTQYVLDVQYSPTARIHASQAVVREGDTLVLTCAVTGNPRPNQIRWNRGNESLPERAEAVGETLTLPGLVSADNGTYTCEAANKHGHARALYVLVVYDPGAVVEAQTSVPY
notes: also called soluble Necl-4; soluble Necl4; not shown: constant region (Fc) of human IgG1
